In one assay the target is T1, Iqg1-6HA (S. cerevisiae) (UniProt Q12280).
T1 sequence: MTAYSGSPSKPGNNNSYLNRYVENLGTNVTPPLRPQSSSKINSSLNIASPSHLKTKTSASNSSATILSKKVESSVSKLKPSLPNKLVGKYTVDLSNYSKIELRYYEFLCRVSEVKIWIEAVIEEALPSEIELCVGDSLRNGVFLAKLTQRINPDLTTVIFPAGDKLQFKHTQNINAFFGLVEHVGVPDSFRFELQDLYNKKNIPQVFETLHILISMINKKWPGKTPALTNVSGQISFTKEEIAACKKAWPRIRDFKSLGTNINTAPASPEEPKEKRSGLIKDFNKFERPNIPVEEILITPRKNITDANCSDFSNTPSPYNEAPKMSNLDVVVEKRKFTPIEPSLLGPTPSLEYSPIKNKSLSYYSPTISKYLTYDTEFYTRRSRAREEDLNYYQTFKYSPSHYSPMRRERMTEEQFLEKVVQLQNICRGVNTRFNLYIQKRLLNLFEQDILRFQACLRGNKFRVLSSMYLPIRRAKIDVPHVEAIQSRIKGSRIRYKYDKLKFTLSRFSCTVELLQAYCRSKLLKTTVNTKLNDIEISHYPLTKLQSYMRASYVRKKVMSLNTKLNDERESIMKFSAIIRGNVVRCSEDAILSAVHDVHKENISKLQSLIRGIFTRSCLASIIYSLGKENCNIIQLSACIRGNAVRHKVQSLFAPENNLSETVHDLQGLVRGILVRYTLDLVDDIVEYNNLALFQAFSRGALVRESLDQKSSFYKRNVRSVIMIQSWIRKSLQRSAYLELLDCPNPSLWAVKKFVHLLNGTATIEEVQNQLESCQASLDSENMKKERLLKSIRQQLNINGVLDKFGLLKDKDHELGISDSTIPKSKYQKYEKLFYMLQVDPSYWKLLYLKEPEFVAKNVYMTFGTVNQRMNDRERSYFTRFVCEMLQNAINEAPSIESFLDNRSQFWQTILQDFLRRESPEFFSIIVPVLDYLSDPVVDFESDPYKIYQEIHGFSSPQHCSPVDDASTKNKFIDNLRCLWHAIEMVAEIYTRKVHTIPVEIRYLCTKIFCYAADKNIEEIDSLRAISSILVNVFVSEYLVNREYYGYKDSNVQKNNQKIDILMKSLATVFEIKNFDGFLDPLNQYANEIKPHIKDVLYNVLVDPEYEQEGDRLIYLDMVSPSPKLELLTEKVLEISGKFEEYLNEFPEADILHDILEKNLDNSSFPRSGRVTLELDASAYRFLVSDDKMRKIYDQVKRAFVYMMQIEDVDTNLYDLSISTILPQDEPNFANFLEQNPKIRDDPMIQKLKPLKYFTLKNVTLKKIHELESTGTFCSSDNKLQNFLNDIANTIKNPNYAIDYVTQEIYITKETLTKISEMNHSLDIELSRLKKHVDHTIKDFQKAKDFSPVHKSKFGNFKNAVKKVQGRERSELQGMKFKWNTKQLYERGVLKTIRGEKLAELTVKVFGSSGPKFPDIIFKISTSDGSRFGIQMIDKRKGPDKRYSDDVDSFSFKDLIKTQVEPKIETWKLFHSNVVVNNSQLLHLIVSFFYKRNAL
The experiment in a line: co-IP; yeast extract of IQG1-6HA cells 105 minutes after release from G1 (cytokinesis); immunoprecipitation of Iqg1-6HA; immunoblot with antibodies against Chs2, Inn1 and Cyk3.

The next assay addresses T2, Inn1-TAP (S. cerevisiae) (UniProt P53901).
T2 sequence: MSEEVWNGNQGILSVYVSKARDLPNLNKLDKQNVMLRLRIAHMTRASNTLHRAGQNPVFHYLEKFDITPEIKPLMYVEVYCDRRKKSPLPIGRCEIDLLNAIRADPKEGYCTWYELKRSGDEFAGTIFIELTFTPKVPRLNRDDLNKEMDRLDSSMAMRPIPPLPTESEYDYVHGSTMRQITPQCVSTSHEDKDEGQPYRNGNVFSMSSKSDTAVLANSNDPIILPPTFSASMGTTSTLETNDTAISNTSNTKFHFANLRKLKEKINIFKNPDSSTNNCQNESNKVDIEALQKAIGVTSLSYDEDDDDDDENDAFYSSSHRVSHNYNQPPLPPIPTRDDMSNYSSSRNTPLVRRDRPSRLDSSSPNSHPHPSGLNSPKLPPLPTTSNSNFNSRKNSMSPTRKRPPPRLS
The experiment in a line: co-IP; yeast cell extracts 105 minutes after release from G1 arrest (alpha factor) at 24°C, cells in cytokinesis; TAP fusions immunoprecipitated on IgG beads; immunoblot. For orientation: A western blot detects proteins with antibodies after separation by electrophoresis.

No constants are given. Whether binding was seen depends on the method and setting. In cells and extracts the contact can be indirect. Some results given as binding are weak or reduced against the parent protein; the word gives no strength.

B1: Inn1 (in yeast extract, detected with anti-Inn1 antibodies) (protein, UniProt P53901 1-409)
chain: MSEEVWNGNQGILSVYVSKARDLPNLNKLDKQNVMLRLRIAHMTRASNTLHRAGQNPVFHYLEKFDITPEIKPLMYVEVYCDRRKKSPLPIGRCEIDLLNAIRADPKEGYCTWYELKRSGDEFAGTIFIELTFTPKVPRLNRDDLNKEMDRLDSSMAMRPIPPLPTESEYDYVHGSTMRQITPQCVSTSHEDKDEGQPYRNGNVFSMSSKSDTAVLANSNDPIILPPTFSASMGTTSTLETNDTAISNTSNTKFHFANLRKLKEKINIFKNPDSSTNNCQNESNKVDIEALQKAIGVTSLSYDEDDDDDDENDAFYSSSHRVSHNYNQPPLPPIPTRDDMSNYSSSRNTPLVRRDRPSRLDSSSPNSHPHPSGLNSPKLPPLPTTSNSNFNSRKNSMSPTRKRPPPRLS
As for B1, in the assay with Iqg1-6HA (S. cerevisiae), the binding entry is “binds”.

B2: Chs2 (in yeast extract, detected with anti-Chs2 antibodies) (enzyme, UniProt P14180 1-963)
chain: MTRNPFMVEPSNGSPNRRGASNLSKFYANANSNSRWANPSEESLEDSYDQSNVFQGLPASPSRAALRYSPDRRHRTQFYRDSAHNSPVAPNRYAANLQESPKRAGEAVIHLSEGSNLYPRDNADLPVDPYHLSPQQQPSNNLFGSGRLYSQSSKYTMSTTSTTAPSLAEADDEKEKYLTSTTSYDDQSTIFSADTFNETKFELNHPTRQQYVRRANSESKRRMVSDLPPPSKKKALLKLDNPIPKGLLDTLPRRNSPEFTEMRYTACTVEPDDFLREGYTLRFAEMNRECQIAICITMYNEDKYSLARTIHSIMKNVAHLCKREKSHVWGPNGWKKVSVILISDGRAKVNQGSLDYLAALGVYQEDMAKASVNGDPVKAHIFELTTQVSINADLDYVSKDIVPVQLVFCLKEENKKKINSHRWLFNAFCPVLQPTVVTLVDVGTRLNNTAIYRLWKVFDMDSNVAGAAGQIKTMKGKWGLKLFNPLVASQNFEYKISNILDKPLESVFGYISVLPGALSAYRYRALKNHEDGTGPLRSYFLGETQEGRDHDVFTANMYLAEDRILCWELVAKRDAKWVLKYVKEATGETDVPEDVSEFISQRRRWLNGAMFAAIYAQLHFYQIWKTKHSVVRKFFLHVEFLYQFIQMLFSWFSIANFVLTFYYLAGSMNLVIKHGEALFIFFKYLIFCDLASLFIISMGNRPQGAKHLFITSMVILSICATYSLICGFVFAFKSLASGTESHKIFVDIVISLLSTYGLYFFSSLMYLDPWHMFTSSIQYFLTLPAFTCTLQIFAFCNTHDVSWGTKGSTQESKQLSKAIVVQGPDGKQIVETDWPQEVDKKFLEIKSRLKEPEFEESSGNEKQSKNDYYRDIRTRIVMIWMLSNLILIMSIIQVFTPQDTDNGYLIFILWSVAALAAFRVVGSMAFLFMKYLRIIVSYRNKVEGSGSWEVSKLDLPNVFHKKG
With B2, in the assay with Iqg1-6HA (S. cerevisiae), the binding result is reported as “binds”.

B3: Cyk3 (endogenous, in yeast extract) (protein, UniProt Q07533 1-885)
chain: MATNLTSLKPPFKVKARYGWSGQTKGDLGFLEGDIMEVTRIAGSWFYGKLLRNKKCSGYFPHNFVILLEERLNSSTENGRQPSKIVESFEKSNKVVIPPVPSRYSDERPRPKKKLSSSMPNSPKKPVDSLTKARKAKSKEMVNEKNIYNTQSSRHHNNSAPNLPLASHSKPQVRNFEESMNNPLPPLPPLPDLDNMRKTDKRAPKKSYSANDLHMARSSREYNYYKDNQKFYDGFIPEKRYSLEEDSISSGLFSNSQYLNDSACSSENSFALMSDFSATSAGSFARHKYAQSFSDSLQRSQNANGCSTKINDSQEFGDSNASSRNGKMGDILRKIIIPKRNTNIYSSSVSSPKSPKAYPKLPDIQNLNLSATPDEARDWIAVKCHLNRARTLTKYDKHPRYMRALEENRDLILHPQDSIYNGLNTNEVKGNTKPGLVDVELAELNIEYIDKMTWKRCIRDGTMTLDSWAQTTFSARYSTVLEKLRGIYIFCTEMFALTDDNGTSDFSAEPQNLEKILYRKHCTPYELTWLFKKLANSLGITCEIVIGFLKTPSAINWEFKYNHCWLRILVNKEWRFIDVILGNVTNPIHEFVNNRKIKKAENSYFLMAPLEMIYTHIPPREFEQHIVPSIDQLSALYLPLVFPSFFKNELKLYKFSTALSFLEDSEIYECSLEIPNDVEVFASVVIPTDNEEASSAYRNMELALTQIKKQKAESGRRIALIKAVLPPNVNKGSLYIHSGVRGTQTSIANIHPLSMMVPLTHKGSNMKYEFVIKIPSESIQKIELYIVEPQSRYLFVGNEYSFEVIQSPSDGIVYSSDEGPNQNRKQPMAIKSPSGRVHELVKSDPHFPYGTWKGSIKIKEPGVWSALVIADSGIGWSVFAEWLCV
Take B3: the binding result in the assay with Iqg1-6HA (S. cerevisiae) and with Inn1-TAP (S. cerevisiae) was “binds” throughout.

B4: Iqg1-6HA (protein, UniProt Q12280 1-1495)
chain: MTAYSGSPSKPGNNNSYLNRYVENLGTNVTPPLRPQSSSKINSSLNIASPSHLKTKTSASNSSATILSKKVESSVSKLKPSLPNKLVGKYTVDLSNYSKIELRYYEFLCRVSEVKIWIEAVIEEALPSEIELCVGDSLRNGVFLAKLTQRINPDLTTVIFPAGDKLQFKHTQNINAFFGLVEHVGVPDSFRFELQDLYNKKNIPQVFETLHILISMINKKWPGKTPALTNVSGQISFTKEEIAACKKAWPRIRDFKSLGTNINTAPASPEEPKEKRSGLIKDFNKFERPNIPVEEILITPRKNITDANCSDFSNTPSPYNEAPKMSNLDVVVEKRKFTPIEPSLLGPTPSLEYSPIKNKSLSYYSPTISKYLTYDTEFYTRRSRAREEDLNYYQTFKYSPSHYSPMRRERMTEEQFLEKVVQLQNICRGVNTRFNLYIQKRLLNLFEQDILRFQACLRGNKFRVLSSMYLPIRRAKIDVPHVEAIQSRIKGSRIRYKYDKLKFTLSRFSCTVELLQAYCRSKLLKTTVNTKLNDIEISHYPLTKLQSYMRASYVRKKVMSLNTKLNDERESIMKFSAIIRGNVVRCSEDAILSAVHDVHKENISKLQSLIRGIFTRSCLASIIYSLGKENCNIIQLSACIRGNAVRHKVQSLFAPENNLSETVHDLQGLVRGILVRYTLDLVDDIVEYNNLALFQAFSRGALVRESLDQKSSFYKRNVRSVIMIQSWIRKSLQRSAYLELLDCPNPSLWAVKKFVHLLNGTATIEEVQNQLESCQASLDSENMKKERLLKSIRQQLNINGVLDKFGLLKDKDHELGISDSTIPKSKYQKYEKLFYMLQVDPSYWKLLYLKEPEFVAKNVYMTFGTVNQRMNDRERSYFTRFVCEMLQNAINEAPSIESFLDNRSQFWQTILQDFLRRESPEFFSIIVPVLDYLSDPVVDFESDPYKIYQEIHGFSSPQHCSPVDDASTKNKFIDNLRCLWHAIEMVAEIYTRKVHTIPVEIRYLCTKIFCYAADKNIEEIDSLRAISSILVNVFVSEYLVNREYYGYKDSNVQKNNQKIDILMKSLATVFEIKNFDGFLDPLNQYANEIKPHIKDVLYNVLVDPEYEQEGDRLIYLDMVSPSPKLELLTEKVLEISGKFEEYLNEFPEADILHDILEKNLDNSSFPRSGRVTLELDASAYRFLVSDDKMRKIYDQVKRAFVYMMQIEDVDTNLYDLSISTILPQDEPNFANFLEQNPKIRDDPMIQKLKPLKYFTLKNVTLKKIHELESTGTFCSSDNKLQNFLNDIANTIKNPNYAIDYVTQEIYITKETLTKISEMNHSLDIELSRLKKHVDHTIKDFQKAKDFSPVHKSKFGNFKNAVKKVQGRERSELQGMKFKWNTKQLYERGVLKTIRGEKLAELTVKVFGSSGPKFPDIIFKISTSDGSRFGIQMIDKRKGPDKRYSDDVDSFSFKDLIKTQVEPKIETWKLFHSNVVVNNSQLLHLIVSFFYKRNAL
Regarding B4, the binding result in the assay with Inn1-TAP (S. cerevisiae) was “binds”.

These data come from PMC4758748.
